These are yes or no findings as the source states them, for the method shown. In cells and extracts the contact can be indirect. Here binding means that the protein was enriched with, or labelled near, the bait; the list need not be complete.

The chains behind the UniProt entries cited, without tags or fusion partners.
UniProt P23258: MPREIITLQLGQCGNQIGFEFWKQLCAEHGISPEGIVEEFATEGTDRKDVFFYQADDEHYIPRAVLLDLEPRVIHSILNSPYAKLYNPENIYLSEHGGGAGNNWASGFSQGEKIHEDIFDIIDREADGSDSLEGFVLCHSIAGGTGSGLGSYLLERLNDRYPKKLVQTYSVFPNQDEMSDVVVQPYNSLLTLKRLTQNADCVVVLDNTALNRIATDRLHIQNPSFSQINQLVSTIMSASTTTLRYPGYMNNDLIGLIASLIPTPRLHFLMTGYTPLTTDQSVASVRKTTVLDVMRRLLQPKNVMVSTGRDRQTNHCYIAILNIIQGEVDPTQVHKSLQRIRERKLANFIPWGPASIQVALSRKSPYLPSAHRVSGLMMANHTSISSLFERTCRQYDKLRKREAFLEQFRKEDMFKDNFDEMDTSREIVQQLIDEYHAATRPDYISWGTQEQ
UniProt P09874: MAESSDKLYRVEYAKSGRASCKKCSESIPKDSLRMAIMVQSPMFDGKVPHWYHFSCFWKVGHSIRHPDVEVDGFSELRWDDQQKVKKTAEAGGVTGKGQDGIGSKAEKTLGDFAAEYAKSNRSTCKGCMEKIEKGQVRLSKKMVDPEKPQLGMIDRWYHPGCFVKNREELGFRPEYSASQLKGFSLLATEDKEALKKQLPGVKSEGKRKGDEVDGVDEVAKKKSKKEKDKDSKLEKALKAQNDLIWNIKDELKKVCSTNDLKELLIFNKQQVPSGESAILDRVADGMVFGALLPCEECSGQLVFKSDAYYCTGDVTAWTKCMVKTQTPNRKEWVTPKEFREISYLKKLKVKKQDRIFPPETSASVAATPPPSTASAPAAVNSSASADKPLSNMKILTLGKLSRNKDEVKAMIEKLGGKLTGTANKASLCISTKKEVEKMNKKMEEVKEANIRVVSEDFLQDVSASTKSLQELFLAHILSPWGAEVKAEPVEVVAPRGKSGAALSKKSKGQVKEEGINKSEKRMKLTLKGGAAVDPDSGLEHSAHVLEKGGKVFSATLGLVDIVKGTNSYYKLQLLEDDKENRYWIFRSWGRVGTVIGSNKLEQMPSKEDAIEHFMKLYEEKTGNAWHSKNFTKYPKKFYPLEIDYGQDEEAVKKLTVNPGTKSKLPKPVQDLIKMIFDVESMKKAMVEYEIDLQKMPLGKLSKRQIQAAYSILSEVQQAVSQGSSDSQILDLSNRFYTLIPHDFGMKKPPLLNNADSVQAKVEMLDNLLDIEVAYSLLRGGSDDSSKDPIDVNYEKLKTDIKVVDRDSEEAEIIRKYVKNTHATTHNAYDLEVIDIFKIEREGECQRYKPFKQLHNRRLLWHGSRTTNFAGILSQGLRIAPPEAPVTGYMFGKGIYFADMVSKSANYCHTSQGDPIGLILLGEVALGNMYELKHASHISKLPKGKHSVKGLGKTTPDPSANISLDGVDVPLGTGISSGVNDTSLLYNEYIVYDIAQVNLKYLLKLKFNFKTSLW
UniProt P78527: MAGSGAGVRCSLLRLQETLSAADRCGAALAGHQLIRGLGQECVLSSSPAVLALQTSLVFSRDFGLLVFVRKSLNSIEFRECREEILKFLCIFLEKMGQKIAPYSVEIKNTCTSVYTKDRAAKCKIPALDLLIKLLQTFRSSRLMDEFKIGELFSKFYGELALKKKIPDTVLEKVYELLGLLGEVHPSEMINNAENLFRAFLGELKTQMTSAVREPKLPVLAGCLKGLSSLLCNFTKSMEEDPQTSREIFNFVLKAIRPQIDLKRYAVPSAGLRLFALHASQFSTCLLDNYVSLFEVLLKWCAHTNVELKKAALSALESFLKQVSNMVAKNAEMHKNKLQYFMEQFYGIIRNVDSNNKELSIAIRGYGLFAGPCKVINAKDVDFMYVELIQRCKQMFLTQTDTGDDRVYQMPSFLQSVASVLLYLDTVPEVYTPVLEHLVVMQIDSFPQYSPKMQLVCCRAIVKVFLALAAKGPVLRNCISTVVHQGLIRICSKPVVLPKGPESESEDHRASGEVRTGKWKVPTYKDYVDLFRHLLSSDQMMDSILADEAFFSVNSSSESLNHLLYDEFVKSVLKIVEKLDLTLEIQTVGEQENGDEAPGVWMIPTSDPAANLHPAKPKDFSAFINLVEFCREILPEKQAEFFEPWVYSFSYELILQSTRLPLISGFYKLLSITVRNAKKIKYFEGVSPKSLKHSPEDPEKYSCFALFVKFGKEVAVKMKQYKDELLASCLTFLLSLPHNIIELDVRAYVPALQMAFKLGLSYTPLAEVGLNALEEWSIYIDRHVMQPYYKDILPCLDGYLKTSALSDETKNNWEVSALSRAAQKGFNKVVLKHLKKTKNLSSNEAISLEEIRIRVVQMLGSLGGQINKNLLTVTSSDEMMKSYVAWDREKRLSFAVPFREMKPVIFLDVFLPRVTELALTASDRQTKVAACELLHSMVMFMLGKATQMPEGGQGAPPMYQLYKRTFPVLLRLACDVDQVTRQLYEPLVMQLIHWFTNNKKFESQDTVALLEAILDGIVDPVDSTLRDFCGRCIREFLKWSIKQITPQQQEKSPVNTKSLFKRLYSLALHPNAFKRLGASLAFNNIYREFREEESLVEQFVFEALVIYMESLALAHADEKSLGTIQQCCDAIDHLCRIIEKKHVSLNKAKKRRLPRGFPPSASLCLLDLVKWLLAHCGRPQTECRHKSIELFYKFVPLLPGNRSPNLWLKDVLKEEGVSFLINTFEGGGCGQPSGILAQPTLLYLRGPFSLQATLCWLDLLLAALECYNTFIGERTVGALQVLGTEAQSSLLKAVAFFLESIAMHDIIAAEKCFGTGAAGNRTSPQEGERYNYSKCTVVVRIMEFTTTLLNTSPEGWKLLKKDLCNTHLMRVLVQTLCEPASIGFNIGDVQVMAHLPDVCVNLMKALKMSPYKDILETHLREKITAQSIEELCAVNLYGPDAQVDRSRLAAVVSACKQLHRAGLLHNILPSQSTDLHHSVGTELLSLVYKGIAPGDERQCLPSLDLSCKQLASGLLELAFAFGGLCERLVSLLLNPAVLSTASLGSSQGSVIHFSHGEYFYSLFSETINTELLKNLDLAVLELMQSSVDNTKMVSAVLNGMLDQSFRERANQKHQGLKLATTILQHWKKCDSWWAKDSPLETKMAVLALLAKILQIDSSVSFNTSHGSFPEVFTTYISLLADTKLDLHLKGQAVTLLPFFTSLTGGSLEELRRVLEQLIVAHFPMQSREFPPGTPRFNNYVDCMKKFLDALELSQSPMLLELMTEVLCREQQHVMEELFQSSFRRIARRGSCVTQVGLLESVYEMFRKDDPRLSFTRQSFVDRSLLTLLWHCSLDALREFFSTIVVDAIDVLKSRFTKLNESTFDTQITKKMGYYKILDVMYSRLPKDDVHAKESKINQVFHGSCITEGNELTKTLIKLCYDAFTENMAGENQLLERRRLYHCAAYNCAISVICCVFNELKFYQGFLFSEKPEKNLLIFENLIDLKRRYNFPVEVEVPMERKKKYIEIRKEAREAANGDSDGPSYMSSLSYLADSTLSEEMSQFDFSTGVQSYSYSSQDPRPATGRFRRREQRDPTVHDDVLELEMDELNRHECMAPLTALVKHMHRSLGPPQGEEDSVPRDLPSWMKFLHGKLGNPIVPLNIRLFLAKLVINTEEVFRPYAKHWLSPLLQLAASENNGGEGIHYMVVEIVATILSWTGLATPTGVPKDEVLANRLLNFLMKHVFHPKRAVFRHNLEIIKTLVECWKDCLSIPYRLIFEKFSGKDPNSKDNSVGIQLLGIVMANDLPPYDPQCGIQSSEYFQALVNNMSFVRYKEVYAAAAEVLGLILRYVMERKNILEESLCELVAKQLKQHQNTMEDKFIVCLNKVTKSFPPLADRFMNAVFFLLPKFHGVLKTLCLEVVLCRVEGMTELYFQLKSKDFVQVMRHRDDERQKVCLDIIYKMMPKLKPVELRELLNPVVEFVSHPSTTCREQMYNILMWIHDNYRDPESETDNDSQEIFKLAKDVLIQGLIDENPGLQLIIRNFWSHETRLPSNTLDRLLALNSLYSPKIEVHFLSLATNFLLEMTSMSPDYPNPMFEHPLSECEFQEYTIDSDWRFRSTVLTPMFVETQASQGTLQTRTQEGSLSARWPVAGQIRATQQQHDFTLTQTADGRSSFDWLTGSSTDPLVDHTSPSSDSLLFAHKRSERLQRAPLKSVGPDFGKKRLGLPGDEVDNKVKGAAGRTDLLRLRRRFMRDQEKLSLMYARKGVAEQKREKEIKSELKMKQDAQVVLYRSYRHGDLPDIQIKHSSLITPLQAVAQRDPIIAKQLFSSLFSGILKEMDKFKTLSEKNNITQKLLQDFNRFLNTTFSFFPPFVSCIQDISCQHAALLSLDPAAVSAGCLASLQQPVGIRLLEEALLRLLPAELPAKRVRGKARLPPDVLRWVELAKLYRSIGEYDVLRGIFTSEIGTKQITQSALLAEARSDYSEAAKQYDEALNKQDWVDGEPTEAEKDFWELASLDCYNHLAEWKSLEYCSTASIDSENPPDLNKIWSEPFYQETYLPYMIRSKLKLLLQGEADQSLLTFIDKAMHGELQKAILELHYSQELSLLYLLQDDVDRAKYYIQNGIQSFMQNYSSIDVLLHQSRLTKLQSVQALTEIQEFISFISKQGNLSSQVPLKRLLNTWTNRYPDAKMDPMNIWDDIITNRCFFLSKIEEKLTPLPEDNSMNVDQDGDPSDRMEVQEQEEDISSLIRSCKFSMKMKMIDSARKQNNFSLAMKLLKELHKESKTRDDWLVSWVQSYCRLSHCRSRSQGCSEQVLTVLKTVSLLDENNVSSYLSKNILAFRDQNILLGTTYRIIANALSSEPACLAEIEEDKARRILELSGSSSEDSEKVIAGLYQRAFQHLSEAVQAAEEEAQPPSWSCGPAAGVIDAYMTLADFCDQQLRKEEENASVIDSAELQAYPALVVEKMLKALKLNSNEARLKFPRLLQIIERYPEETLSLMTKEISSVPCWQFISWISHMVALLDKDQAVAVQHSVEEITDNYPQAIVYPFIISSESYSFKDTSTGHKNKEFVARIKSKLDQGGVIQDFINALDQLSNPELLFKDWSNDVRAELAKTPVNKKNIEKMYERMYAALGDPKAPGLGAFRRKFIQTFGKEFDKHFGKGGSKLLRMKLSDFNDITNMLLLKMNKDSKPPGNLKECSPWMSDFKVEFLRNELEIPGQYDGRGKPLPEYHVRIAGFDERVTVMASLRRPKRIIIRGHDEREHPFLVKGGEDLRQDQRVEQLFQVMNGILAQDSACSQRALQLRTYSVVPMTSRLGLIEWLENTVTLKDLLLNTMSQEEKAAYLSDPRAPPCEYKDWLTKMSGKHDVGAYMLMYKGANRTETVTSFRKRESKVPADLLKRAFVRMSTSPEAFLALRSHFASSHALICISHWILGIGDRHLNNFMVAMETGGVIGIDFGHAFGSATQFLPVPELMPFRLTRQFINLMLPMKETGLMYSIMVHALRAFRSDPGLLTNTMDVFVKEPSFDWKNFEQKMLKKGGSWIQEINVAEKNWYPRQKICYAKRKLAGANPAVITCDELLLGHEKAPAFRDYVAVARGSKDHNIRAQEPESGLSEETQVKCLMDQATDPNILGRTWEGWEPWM

Experimental findings from publication PMC12050090 are described below.

The test has as its target γ-tubulin (human (endogenous in HeLa)) (UniProt P23258). As to the kind of experiment: affinity purification with mass spectrometry; anti-γ-tubulin antibody on magnetic beads incubated with HeLa cell lysates, cells untreated or treated with bleomycin (20 µM, 3 h); washed three times with PBS; control with blank beads; proteomic analysis.

“poly-ADP-ribose polymerase 1 (from UniProt P09874 1-1014)”: the binding result is listed as “binds”. Consider “catalytic subunit (DNA-PKcs) of the DNA-dependent protein kinase complex (from UniProt P78527 1-4128)”, for which the binding result is “binds”.
